Experimental data taken from the supplement of paper PMC10735217.
Counter-ions that a name gives are not always drawn. Some of the results follow. This data set is noisy: repeats of one test often differ as much as different tests do.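 Human kidney-derived cells stably carry a construct in which eight TEAD-binding elements drive luciferase, measured by luminescence in a drug-repurposing library screen. A hit is any compound whose signal exceeds the plate mean by more than five robust Z scores.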

System: HEK293A TEAD-LUC reporter
Assay: TEAD-luciferase reporter activity (YAP activation), robust Z score vs plate; higher = stronger YAP/TEAD activation
Conditions: 24 h

Row | Compound | TEAD-luciferase reporter activity (compound concentration: 2 uM) | TEAD-luciferase reporter activity (compound concentration: 200 nM) | TEAD-luciferase reporter activity (compound concentration: 10 uM)
1 | CC(=O)[C@H]1CC[C@H]2[C@@H]3CC[C@H]4C[C@H](O)CC[C@]4(C)[C@H]3CC[C@]12C [Allopregnanolone] | inactive: -1.41 |  | 
2 | CC(=O)[C@H]1CC[C@H]2[C@@H]3CC[C@H]4C[C@H](O)CC[C@]4(C)[C@H]3CC[C@]12C [(3?,5?)-3-Hydroxy-pregnan-20-one] |  | inactive: -1.49 | inactive: 3.19
3 | NC(=O)OCC(N)Cc1ccccc1 (configuration not stated) | inactive: 0.946 | inactive: 2.45 | inactive: -1.26
4 | Cn1cc(C2=C(c3cn(C4CCN(Cc5ccccn5)CC4)c4ccccc34)C(=O)NC2=O)c2ccccc21 [enzastaurin hydrochloride] | inactive: -1.25 | inactive: -2.69 | inactive: 1.92
5 | CC12CCC(=O)C=C1CC[C@@H]1[C@@H]2CCC2(C)[C@@H](O[Si](C)(C)C)CC[C@@H]12 (some centres not stated) | inactive: -1.28 | inactive: -0.137 | inactive: 0.0905
6 | NC1CC1c1ccccc1 (configuration not stated) [Tranylcypromine sulfate] | inactive: -2.09 |  | 
7 | NC1CC1c1ccccc1 (configuration not stated) [Tranylcypromine hydrochloride] |  | inactive: 1.67 | inactive: 0.73
8 | CN1[C@@H]2CC=C(C(=O)O)[C@H]1CC2 [Ecgonine, derivative of] | inactive: -0.497 | inactive: 0.292 | inactive: 1.4
9 | C[C@]12C=CC(=O)C=C1CC[C@@H]1[C@@H]2CC[C@@]2(C)[C@H]1CC[C@]2(C)O | inactive: 1.11 | inactive: -0.906 | inactive: 0.0717
10 | CC[C@@]1(O)C(=O)OCc2c1cc1n(c2=O)Cc2c-1nc1ccccc1c2/C=N/OCCN | inactive: -0.63 | inactive: -1.69 | inactive: -0.581
11 | CCC[C@]1(O)CC[C@H]2[C@@H]3CCC4=CC(=O)CCC4(C)[C@H]3CCC21C (some centres not stated) [topterone] | inactive: 0.2 | inactive: -0.574 | inactive: 0.801
12 | CC1[O][Pt-2]2([NH]C[C@@H]3CC[C@H]3C[NH]2)[O]C1=O (some centres not stated) [Lobaplatin] |  | inactive: -0.814 | inactive: 1.05
13 | CCOC(=O)NC1=C(N2CC2)C(=O)C(NC(=O)OCC)=C(N2CC2)C1=O | inactive: -1.12 | inactive: -0.156 | inactive: -0.981
14 | CC[C@@H](CO)NC(=O)[C@@H]1C=C2c3cccc4[nH]cc(c34)C[C@H]2N(C)C1 [Methylergonovine maleate] | inactive: -0.0251 |  | 
15 | CC[C@@H](CO)NC(=O)[C@@H]1C=C2c3cccc4[nH]cc(c34)C[C@H]2N(C)C1 |  | inactive: 0.786 | inactive: 2.03
16 | CCOP(=O)(OCC)OCC | inactive: 0.546 | inactive: -0.578 | inactive: -1.19
17 | CCCN(CCC)C1CCc2cccc(-c3ccno3)c2C1 (configuration not stated) | inactive: -0.639 | inactive: -0.855 | inactive: 0.0313
18 | O=c1ccc2cccc(N3CCNCC3)c2o1 [batoprazine] | inactive: -1.35 | inactive: -0.967 | inactive: -1.51

Part of the list above, reduced to TEAD-luciferase reporter activity (compound concentration: 2 uM) and TEAD-luciferase reporter activity (compound concentration: 200 nM).
Row,Compound,TEAD-luciferase reporter activity (compound concentration: 2 uM),TEAD-luciferase reporter activity (compound concentration: 200 nM)
12,CC1[O][Pt-2]2([NH]C[C@@H]3CC[C@H]3C[NH]2)[O]C1=O (some centres not stated) [Lobaplatin],,inactive: -0.814
13,CCOC(=O)NC1=C(N2CC2)C(=O)C(NC(=O)OCC)=C(N2CC2)C1=O,inactive: -1.12,inactive: -0.156

Additional results.

Row | Compound | TEAD-luciferase reporter activity (compound concentration: 2 uM) | TEAD-luciferase reporter activity (compound concentration: 200 nM) | TEAD-luciferase reporter activity (compound concentration: 10 uM)
19 | NC(=O)OCC(F)(COC(N)=O)c1ccccc1 | inactive: -0.766 | inactive: -1.32 | inactive: 2.63
20 | O=C([O-])C(F)(F)C(F)(F)C(F)(F)C(F)(F)C(F)(F)C(F)(F)C(F)(F)F [Ammonium pentadecafluorooctanoate] | inactive: 1.78 | inactive: -0.983 | inactive: 1.29
21 | CNCC(O)c1ccc(O)cc1 (configuration not stated) |  | inactive: -1.1 | inactive: 0.018
22 | CNCC(O)c1ccc(O)cc1 (configuration not stated) [Synephrine] | inactive: -1.22 |  | 
23 | CCOC(=O)c1ncc2[nH]c3cccc(OCc4ccccc4)c3c2c1COC | inactive: -0.359 | inactive: 1.24 | inactive: -1.1
24 | C=CC1CCC2OC2C1 (configuration not stated) | inactive: -1.02 | inactive: -2.51 | inactive: -1.17
25 | CC1=C2C[C@H]3[C@@H](CC=C4CC(O)CCC43C)[C@@H]2CC[C@]12O[C@@H]1CC(C)CN[C@H]1[C@H]2C (some centres not stated) | inactive: -0.302 | inactive: -0.409 | inactive: -0.242
26 | CC1(O)C=C[C@]2(C)C3CC[C@@]4(C)C(CC[C@@H]4O)C3CC[C@@]2(C)C1 (some centres not stated) | inactive: 0.109 | active: 5.37 | inactive: 0.593
27 | CCN1C[C@]2(COC)CC[C@H](OC)[C@]34C1[C@@H]([C@H](OC)[C@H]23)[C@@]1(OC(C)=O)C[C@H](OC)[C@@]2(O)C[C@@H]4[C@@H]1[C@H]2C(=O)c1ccc(OC)cc1 | inactive: -0.244 | inactive: -0.854 | inactive: -0.549
28 | Cc1cccc(C)c1NC1=NCCCS1 | inactive: -0.414 |  | 
29 | Cc1cccc(C)c1NC1=NCCCS1 [Xylazine HCl] |  | inactive: -3.02 | inactive: 4.99
30 | C[C@@H]1C[C@@H]([C@H](O)CC2CC(=O)NC(=O)C2)C(=O)[C@@H](C)C1 [Cycloheximide] | inactive: -0.419 | inactive: -2.44 | inactive: 2.84
31 | C[C@@H](N)C(=O)N[C@@H](CO)C(=O)N[C@H](C(=O)N[C@H](C(=O)N[C@H](C(=O)N[C@@H](CC(N)=O)C(=O)N[C@@H](Cc1ccc(O)cc1)C(=O)N[C@H](C(N)=O)[C@@H](C)O)[C@@H](C)O)[C@@H](C)O)[C@@H](C)O | inactive: -2.1 | inactive: -1.44 | inactive: -0.89
32 | C[C@]12CCC(=O)C=C1CC[C@@H]1[C@@H]2CC[C@]2(C)OC(=O)CC[C@@H]12 [Testololactone] | inactive: -1.06 | inactive: 0.657 | inactive: 0.93
33 | CC(C(=O)c1ccccc1)N(C)C (configuration not stated) | inactive: -0.648 | inactive: -1.15 | inactive: -0.899
34 | CC(Cc1ccccc1)NCCCCl (configuration not stated) | inactive: -0.97 | inactive: -0.686 | inactive: -0.383
35 | CC(=O)O[C@H]1CC[C@H]2[C@@H]3CC[C@H]4CC(=O)C=C(C)[C@]4(C)[C@H]3CC[C@]12C | inactive: 0.468 | inactive: -0.38 | inactive: 0.35
36 | CC(Cc1ccc(O)cc1)NCC(O)c1cc(N)cc(CO)c1 (configuration not stated) | inactive: -0.494 | inactive: -0.388 | inactive: -0.0287
